Among the data in article PMC10484118 are binding values, retold here.

Amino acid sequences for entries named in this document (tags omitted).
UniProt P40763: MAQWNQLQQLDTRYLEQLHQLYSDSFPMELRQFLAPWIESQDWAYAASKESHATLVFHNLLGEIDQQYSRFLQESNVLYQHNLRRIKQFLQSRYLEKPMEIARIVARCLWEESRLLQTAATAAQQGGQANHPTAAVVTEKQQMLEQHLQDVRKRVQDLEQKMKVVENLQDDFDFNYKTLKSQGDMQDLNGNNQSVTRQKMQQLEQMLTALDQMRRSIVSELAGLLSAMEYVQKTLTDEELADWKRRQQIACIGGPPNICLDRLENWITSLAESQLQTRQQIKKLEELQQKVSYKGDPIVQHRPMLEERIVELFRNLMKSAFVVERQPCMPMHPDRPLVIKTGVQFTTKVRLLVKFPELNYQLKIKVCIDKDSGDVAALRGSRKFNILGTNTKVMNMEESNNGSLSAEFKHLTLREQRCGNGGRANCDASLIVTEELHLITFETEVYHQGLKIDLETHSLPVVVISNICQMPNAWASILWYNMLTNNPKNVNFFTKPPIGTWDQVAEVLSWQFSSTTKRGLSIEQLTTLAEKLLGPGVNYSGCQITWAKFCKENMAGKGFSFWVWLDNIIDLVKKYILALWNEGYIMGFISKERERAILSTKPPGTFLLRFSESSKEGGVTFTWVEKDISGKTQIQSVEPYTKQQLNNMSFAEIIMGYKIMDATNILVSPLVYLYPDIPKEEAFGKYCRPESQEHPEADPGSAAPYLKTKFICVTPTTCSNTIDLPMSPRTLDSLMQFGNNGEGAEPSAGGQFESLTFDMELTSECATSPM
UniProt Q13547: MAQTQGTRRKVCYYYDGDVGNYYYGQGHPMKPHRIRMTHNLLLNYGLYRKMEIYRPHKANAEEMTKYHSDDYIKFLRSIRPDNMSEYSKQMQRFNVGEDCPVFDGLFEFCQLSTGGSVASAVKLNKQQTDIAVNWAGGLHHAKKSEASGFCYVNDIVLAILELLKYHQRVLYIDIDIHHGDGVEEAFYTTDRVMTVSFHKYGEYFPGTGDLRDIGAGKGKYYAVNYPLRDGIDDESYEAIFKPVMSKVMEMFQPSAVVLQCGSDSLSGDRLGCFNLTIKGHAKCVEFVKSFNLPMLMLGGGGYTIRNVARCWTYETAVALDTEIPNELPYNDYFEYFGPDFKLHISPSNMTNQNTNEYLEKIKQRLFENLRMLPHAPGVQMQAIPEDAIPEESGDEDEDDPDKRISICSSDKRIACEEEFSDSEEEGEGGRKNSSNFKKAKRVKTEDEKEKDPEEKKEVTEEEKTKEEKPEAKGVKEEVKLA
UniProt Q14686: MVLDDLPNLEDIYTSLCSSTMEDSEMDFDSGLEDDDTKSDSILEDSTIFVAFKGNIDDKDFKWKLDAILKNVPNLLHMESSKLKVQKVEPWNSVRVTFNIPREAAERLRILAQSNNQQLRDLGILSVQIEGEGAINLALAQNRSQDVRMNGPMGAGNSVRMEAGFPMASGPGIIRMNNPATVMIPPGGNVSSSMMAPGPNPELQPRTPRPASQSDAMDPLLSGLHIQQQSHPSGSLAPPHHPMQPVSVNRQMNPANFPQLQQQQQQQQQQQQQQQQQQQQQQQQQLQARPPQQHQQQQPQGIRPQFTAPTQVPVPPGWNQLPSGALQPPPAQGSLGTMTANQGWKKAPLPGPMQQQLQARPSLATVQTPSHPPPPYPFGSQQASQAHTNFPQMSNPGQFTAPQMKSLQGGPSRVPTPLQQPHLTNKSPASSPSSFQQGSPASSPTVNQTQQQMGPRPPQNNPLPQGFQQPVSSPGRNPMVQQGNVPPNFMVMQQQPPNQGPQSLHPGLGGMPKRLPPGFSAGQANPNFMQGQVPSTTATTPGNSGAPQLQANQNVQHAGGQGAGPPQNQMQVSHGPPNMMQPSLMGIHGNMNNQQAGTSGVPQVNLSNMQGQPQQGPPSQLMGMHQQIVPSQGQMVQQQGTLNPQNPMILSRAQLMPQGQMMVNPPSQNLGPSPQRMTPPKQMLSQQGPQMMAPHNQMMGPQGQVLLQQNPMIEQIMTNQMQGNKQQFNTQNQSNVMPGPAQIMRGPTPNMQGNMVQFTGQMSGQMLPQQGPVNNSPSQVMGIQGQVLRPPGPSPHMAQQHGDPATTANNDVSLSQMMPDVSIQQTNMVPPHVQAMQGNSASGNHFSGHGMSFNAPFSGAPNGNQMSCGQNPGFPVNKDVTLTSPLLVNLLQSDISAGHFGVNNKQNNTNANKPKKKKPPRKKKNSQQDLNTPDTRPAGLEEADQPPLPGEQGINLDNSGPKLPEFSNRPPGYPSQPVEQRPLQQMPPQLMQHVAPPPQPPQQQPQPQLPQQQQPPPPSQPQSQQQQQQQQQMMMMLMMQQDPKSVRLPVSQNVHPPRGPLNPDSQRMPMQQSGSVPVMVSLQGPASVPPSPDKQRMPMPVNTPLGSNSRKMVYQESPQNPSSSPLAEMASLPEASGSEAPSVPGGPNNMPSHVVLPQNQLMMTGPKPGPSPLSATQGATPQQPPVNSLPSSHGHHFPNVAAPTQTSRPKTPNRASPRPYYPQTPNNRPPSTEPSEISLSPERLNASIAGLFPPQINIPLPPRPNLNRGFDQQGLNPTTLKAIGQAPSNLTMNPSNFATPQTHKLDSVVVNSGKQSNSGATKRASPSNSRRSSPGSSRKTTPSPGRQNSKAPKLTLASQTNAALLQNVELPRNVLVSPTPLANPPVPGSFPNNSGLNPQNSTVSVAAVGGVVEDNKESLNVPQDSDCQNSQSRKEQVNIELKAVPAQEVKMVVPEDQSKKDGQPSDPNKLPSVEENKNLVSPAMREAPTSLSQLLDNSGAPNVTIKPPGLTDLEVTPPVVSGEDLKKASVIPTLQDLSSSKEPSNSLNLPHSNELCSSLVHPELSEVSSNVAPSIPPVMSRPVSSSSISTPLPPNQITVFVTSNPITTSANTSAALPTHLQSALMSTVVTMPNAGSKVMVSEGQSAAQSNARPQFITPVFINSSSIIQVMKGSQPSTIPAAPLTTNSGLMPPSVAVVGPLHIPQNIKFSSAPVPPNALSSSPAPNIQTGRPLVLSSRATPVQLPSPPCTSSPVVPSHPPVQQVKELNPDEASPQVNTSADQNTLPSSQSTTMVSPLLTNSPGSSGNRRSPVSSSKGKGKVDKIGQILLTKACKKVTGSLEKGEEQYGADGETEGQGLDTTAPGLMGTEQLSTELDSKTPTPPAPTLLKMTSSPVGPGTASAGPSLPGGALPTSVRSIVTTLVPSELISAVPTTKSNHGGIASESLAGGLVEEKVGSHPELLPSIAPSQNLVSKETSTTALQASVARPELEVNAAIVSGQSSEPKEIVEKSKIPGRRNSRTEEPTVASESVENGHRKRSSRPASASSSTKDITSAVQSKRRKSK
UniProt P05412: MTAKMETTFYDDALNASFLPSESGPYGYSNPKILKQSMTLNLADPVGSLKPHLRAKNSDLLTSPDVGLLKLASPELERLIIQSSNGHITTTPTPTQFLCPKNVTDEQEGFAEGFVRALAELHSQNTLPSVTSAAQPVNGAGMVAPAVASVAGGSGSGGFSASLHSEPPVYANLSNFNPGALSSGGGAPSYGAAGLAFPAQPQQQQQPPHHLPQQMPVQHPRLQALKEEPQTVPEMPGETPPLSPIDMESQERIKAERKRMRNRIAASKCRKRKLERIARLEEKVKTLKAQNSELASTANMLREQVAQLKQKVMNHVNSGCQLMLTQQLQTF
UniProt O15379: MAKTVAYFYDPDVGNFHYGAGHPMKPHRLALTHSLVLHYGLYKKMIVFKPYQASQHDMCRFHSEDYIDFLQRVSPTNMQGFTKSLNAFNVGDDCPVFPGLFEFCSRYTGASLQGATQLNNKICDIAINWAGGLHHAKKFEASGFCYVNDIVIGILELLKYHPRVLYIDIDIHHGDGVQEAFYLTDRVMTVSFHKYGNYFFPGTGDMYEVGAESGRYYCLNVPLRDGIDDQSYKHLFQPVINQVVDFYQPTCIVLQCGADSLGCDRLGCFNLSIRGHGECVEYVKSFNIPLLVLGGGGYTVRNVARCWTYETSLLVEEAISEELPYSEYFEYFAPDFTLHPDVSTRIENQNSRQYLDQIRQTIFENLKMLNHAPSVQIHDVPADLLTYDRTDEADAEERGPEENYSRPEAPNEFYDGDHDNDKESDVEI
UniProt O75376: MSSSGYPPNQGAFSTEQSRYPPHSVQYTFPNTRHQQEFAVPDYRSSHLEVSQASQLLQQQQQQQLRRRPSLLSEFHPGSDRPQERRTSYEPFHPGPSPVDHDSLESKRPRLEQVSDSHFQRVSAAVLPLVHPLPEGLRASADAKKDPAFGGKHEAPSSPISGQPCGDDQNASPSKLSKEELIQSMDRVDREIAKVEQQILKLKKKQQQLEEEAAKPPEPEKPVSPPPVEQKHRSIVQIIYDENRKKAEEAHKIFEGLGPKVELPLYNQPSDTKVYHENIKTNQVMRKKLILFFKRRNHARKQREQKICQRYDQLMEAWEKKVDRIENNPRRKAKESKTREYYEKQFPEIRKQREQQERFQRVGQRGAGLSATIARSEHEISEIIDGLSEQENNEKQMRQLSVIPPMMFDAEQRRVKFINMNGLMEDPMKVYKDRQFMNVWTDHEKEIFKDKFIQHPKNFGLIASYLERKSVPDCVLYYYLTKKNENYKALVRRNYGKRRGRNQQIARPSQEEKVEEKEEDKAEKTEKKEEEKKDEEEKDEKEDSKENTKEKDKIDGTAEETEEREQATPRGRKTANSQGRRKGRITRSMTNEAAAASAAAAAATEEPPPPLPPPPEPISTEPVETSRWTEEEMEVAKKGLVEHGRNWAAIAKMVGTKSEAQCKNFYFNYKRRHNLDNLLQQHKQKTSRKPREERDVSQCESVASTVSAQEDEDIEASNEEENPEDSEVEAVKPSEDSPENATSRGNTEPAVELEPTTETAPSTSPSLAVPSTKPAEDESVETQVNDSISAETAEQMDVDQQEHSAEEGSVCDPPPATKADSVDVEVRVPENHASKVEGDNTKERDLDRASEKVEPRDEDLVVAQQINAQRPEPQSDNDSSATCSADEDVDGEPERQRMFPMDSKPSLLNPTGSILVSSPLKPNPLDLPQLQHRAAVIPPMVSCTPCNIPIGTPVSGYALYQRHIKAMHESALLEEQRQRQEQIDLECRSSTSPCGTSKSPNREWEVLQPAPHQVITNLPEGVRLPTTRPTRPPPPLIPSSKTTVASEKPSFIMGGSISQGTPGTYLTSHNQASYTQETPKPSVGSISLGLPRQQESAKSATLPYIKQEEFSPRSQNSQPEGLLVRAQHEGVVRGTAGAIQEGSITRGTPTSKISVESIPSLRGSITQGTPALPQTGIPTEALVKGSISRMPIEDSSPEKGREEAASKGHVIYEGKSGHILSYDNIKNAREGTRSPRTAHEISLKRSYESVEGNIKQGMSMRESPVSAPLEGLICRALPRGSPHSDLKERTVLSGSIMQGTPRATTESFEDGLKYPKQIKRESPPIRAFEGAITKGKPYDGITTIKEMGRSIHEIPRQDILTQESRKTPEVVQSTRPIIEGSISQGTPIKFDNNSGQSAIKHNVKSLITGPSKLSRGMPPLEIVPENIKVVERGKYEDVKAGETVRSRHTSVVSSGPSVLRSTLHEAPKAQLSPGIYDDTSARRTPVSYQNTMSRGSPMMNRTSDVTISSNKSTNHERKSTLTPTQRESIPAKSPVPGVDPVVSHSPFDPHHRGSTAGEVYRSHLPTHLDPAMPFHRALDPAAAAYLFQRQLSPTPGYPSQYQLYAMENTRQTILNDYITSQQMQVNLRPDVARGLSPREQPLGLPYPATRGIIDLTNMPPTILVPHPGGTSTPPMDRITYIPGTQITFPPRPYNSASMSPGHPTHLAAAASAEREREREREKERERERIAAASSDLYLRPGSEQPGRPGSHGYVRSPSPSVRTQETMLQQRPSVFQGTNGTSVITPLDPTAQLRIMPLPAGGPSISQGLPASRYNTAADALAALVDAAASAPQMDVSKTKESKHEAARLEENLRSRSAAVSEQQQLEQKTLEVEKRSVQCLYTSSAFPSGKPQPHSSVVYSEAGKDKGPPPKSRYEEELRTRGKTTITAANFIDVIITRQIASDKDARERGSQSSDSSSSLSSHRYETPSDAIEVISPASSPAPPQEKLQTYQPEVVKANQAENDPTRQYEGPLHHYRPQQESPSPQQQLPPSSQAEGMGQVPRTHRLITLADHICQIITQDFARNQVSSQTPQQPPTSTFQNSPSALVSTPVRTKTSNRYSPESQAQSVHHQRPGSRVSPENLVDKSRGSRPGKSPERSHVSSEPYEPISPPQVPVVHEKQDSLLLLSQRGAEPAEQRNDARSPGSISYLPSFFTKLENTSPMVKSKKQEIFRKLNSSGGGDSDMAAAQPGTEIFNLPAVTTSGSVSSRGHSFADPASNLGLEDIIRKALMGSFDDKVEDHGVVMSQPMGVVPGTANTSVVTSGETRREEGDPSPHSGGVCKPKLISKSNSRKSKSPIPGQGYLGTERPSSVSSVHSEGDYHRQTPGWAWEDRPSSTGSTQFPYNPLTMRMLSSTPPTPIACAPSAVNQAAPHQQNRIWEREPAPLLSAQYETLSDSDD

No constants are given. Whether binding was seen depends on the method and setting. Binding seen in cells or lysates may run through a third protein. A yes stands for co-enrichment or nearness to the bait. Other partners may have been found.

First the molecules themselves.
B1: JUNB (protein, UniProt P17275 1-347)
chain: MCTKMEQPFYHDDSYTATGYGRAPGGLSLHDYKLLKPSLAVNLADPYRSLKAPGARGPGPEGGGGGSYFSGQGSDTGASLKLASSELERLIVPNSNGVITTTPTPPGQYFYPRGGGSGGGAGGAGGGVTEEQEGFADGFVKALDDLHKMNHVTPPNVSLGATGGPPAGPGGVYAGPEPPPVYTNLSSYSPASASSGGAGAAVGTGSSYPTTTISYLPHAPPFAGGHPAQLGLGRGASTFKEEPQTVPEARSRDATPPVSPINMEDQERIKVERKRLRNRLAATKCRKRKLERIARLEDKVKTLKAENAGLSSTAGLLREQVAQLKQKVMTHVSNGCQLLLGVKGHAF

The target of the test is T1, FOXA1 (human (endogenous in NCI-H441, NCI-H3255, NCI-H2009, HCC-44)) (UniProt P55317).
T1 sequence: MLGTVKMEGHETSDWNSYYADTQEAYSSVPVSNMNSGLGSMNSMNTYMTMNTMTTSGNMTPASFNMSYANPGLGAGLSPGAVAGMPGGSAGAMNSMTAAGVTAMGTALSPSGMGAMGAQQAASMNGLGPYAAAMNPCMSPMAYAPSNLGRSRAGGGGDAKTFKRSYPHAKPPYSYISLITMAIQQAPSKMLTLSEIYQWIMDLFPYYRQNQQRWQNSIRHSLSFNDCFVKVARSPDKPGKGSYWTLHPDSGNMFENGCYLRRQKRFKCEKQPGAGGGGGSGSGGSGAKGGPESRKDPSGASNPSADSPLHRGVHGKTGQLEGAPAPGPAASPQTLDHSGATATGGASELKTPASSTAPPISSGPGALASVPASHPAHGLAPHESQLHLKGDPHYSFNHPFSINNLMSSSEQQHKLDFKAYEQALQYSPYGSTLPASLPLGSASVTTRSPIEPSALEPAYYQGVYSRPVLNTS
Briefly: affinity purification with mass spectrometry; RIME: endogenous FOXA1 immunoprecipitated (Abcam ab5089) from cells cross-linked with disuccinimidyl glutarate and formaldehyde; FOXA1-dependent NSCLC lines (GR peptides in H441, HCC-44, H3255); three replicates, isotype IgG control; LC/MS-MS.
Regarding STAT3 (from UniProt P40763 1-770), the binding result is given as “binds”.

Turning to HDAC1 (from UniProt Q13547 1-482), the binding entry is “binds”.

Consider NCOA6 (from UniProt Q14686 1-2063), for which the binding entry is recorded as “binds”. For JUN (from UniProt P05412 1-331), the binding result is recorded as “binds”. With HDAC3 (from UniProt O15379 1-428), the binding entry was “binds”. With RUNX1 (from UniProt Q01196 1-453) the entry was “binds”; with NCOR1 (from UniProt O75376 1-2440), “binds”.

As to B1, the binding entry was “binds”.
